Experimental data as given in the supplement of paper PMC9233669.
Variants at the background level are over-represented here.

Tests used:
[1] = tested on: biotinyl-Ile-oxazolone; assay: self-aminoacylation, catalytic enhancement (BIO) (fold over background); higher = more active; k-Seq, kA / k0A0; sequences stand for … in GGGAAUGGAUCCACAUCUACGAAUUC…UUCACUGCAGACUUGACGAAGCUG
Procedure, shortened: (§1)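 Working in 50 μL HEPES/NaCl/KCl/MgCl2/CaCl2 buffer with 5% acetonitrile at pH 6.9–7.0, mutagenized RNA pools (0.43 μM; 21-nt variable region) were reacted with 2–1250 μM of each biotinyl-aminoacyl-oxazolone for 90 minutes at room temperature. Streptavidin capture followed, with quantification by triplicate qPCR and Illumina sequencing. Catalytic enhancement is reported as median kA over the uncatalyzed rate, the low-activity peak of a bimodal Gaussian fit to the data.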

[2] = tested on: biotinyl-Val-oxazolone; assay: self-aminoacylation, catalytic enhancement (BVO) (fold over background); higher = more active; k-Seq, kA / k0A0; sequences stand for … in GGGAAUGGAUCCACAUCUACGAAUUC…UUCACUGCAGACUUGACGAAGCUG
Procedure, shortened: as §1

[3] = tested on: biotinyl-Leu-oxazolone; assay: self-aminoacylation, catalytic enhancement (BLO) (fold over background); higher = more active; k-Seq, kA / k0A0; sequences stand for … in GGGAAUGGAUCCACAUCUACGAAUUC…UUCACUGCAGACUUGACGAAGCUG
Procedure, shortened: as §1

[4] = tested on: biotinyl-Trp-oxazolone; assay: self-aminoacylation, catalytic enhancement (BWO) (fold over background); higher = more active; k-Seq, kA / k0A0; sequences stand for … in GGGAAUGGAUCCACAUCUACGAAUUC…UUCACUGCAGACUUGACGAAGCUG
Procedure, shortened: as §1

[5] = tested on: biotinyl-Met-oxazolone; assay: self-aminoacylation, catalytic enhancement (BMO) (fold over background); higher = more active; k-Seq, kA / k0A0; sequences stand for … in GGGAAUGGAUCCACAUCUACGAAUUC…UUCACUGCAGACUUGACGAAGCUG
Procedure, shortened: as §1

[6] = tested on: biotinyl-Phe-oxazolone; assay: self-aminoacylation, catalytic enhancement (BFO) (fold over background); higher = more active; k-Seq, kA / k0A0; sequences stand for … in GGGAAUGGAUCCACAUCUACGAAUUC…UUCACUGCAGACUUGACGAAGCUG
Procedure, shortened: as §1

Sequence	self-aminoacylation [1]	self-aminoacylation [2]	self-aminoacylation [3]	self-aminoacylation [4]	self-aminoacylation [5]	self-aminoacylation [6]
CCACACUUCAAGCAAACGGUA [Fam1B.1 aminoacylation ribozyme variant]	1.02	1.07	1.23	1.16	1.01	0.986
CCACGCUGCAAGCAAUCGGUC [Fam1B.1 aminoacylation ribozyme variant]	1.11	1.22	0.911	1.54	0.874	1.62
CCAUACCUCAAGCAAUCGGUC [Fam1B.1 aminoacylation ribozyme variant]	1.28	1.4	1.12	1.1	0.988	1.62
AUUCACCUAGGUCAACGUGUG [Fam2.2 aminoacylation ribozyme variant]	0.731	0.919	0.771	0.292	0.796	0.389
CCACACUUCAAGCAGUCGAUC [Fam1B.1 aminoacylation ribozyme variant]	0.519	0.64	0.511	0.431	0.368	1.02
CUACUACAAACAGUCGGUCUG [Fam1A.1 aminoacylation ribozyme variant]	0.786	0.803	0.866	0.521	0.838	0.75
AUCACCCUGGUCAUCGACUGA [Fam2.1 aminoacylation ribozyme variant]	0.879	1.27	0.995	0.557	1.33	1.67
CCACACACCAAGCAAUCGGUC [Fam1B.1 aminoacylation ribozyme variant]	1.34	1.65	1.1	0.657	0.882	1.09
UUACUUCAUACAAUCGGUCUG [Fam1A.1 aminoacylation ribozyme variant]	1.19	1.19	1.09	1.03	1.19	1.42
GUUCACCUAGGUCCUCGGGUG [Fam2.2 aminoacylation ribozyme variant]	3.49	4.16	4.67	5.27	4.16	25.5
CCACACUUCAAGCAAUCGAGC [Fam1B.1 aminoacylation ribozyme variant]	0.549	0.76	0.638	0.527	0.491	0.688
AUUACCUUGGUCAUCGAGUGC [Fam2.1 aminoacylation ribozyme variant]	0.989	0.99	1.14	0.512	1.33	1.08
CUAAUUCAAACAAUCGUUCUG [Fam1A.1 aminoacylation ribozyme variant]	0.528	0.559	0.449	0.45	0.483	0.632
AAGUUUGCUGAUAGUCCCAAG [Fam3.1 aminoacylation ribozyme variant]	1.17	0.847	0.786	1.08	0.626	0.972
CUACUUCAACCAAUCAGUCUG [Fam1A.1 aminoacylation ribozyme variant]	0.747	0.701	0.794	5.54	0.541	13.9
AAGUCUGCUAAUAGUCGCACG [Fam3.1 aminoacylation ribozyme variant]	0.995	0.982	1.14	1.04	1.11	1.38
CCACACUACAAGCUAUCGGUC [Fam1B.1 aminoacylation ribozyme variant]	0.862	0.954	0.768	0.608	0.737	0.901
AUGCACCUGGGUCAUCGGGUG [Fam2.2 aminoacylation ribozyme variant]	3.37	3.8	3.18	3.63	4.33	21.2
CCACACUACAAGCAAGCGGUC [Fam1B.1 aminoacylation ribozyme variant]	1.16	1.08	0.88	0.517	0.617	1.08
CCACAAUUCAAGCAAUCGUUC [Fam1B.1 aminoacylation ribozyme variant]	0.909	0.864	0.713	0.719	0.815	1.06
CUACUUGAAACAACCGGUCUG [Fam1A.1 aminoacylation ribozyme variant]	1.07	1.01	0.805	1.24	1.18	0.529
CCACACUUCAAGCAAUAGGUU [Fam1B.1 aminoacylation ribozyme variant]	1.05	1.05	0.859	0.617	1	0.838
CCACACUUCAAGCCAUCGGUA [Fam1B.1 aminoacylation ribozyme variant]	1.53	1.4	1.88	1.05	1.7	0.774
CUACUUCAAAUAGUCGGUCUG [Fam1A.1 aminoacylation ribozyme variant]	0.832	0.821	0.769	0.536	0.874	0.487
CUAAUUCCAACAAUCGGUCUG [Fam1A.1 aminoacylation ribozyme variant]	0.882	0.872	0.769	0.612	0.805	0.681
CUACUUCAAACGAUCGGUGUG [Fam1A.1 aminoacylation ribozyme variant]	0.847	0.833	0.933	0.792	0.937	0.631

Sequence	self-aminoacylation [1]	self-aminoacylation [2]	self-aminoacylation [3]	self-aminoacylation [4]	self-aminoacylation [5]	self-aminoacylation [6]
ACUCACCUAGGUCGUCGGGUG [Fam2.2 aminoacylation ribozyme variant]	2.58	2.4	2.25	3.42	2.56	6.16
CCACACUUGAAGCAUUCGGUC [Fam1B.1 aminoacylation ribozyme variant]	1.47	2	1.76	2.09	1.73	3.66
CUACUUCGAACAAUCGGUCGG [Fam1A.1 aminoacylation ribozyme variant]	1.02	0.922	1.41	0.974	1.34	2.37
AUGACCCUGGUCACCGAGUGA [Fam2.1 aminoacylation ribozyme variant]	3.68	5.03	11.7	9.23	10.5	45.5
AUUACCCUGGUCACCAAGUGA [Fam2.1 aminoacylation ribozyme variant]	3.47	3.32	6.54	7.7	6.45	34.3
CCACACUACAAGCAAUCUGUC [Fam1B.1 aminoacylation ribozyme variant]	0.496	0.566	0.49	0.353	0.271	0.747
CAGUUUGCUACUAGUCGCAAG [Fam3.1 aminoacylation ribozyme variant]	1.37	1.2	1.26	1.02	1.19	1.71
CCACACUUCAAGCAUUGGGUC [Fam1B.1 aminoacylation ribozyme variant]	1.04	1.4	0.83	0.956	1.03	0.918
CCACAGUUCAAGUAAUCGGUC [Fam1B.1 aminoacylation ribozyme variant]	1.04	1.1	1	1.51	1.01	1.43
AGUACCCUGGUCAUCGAAUGA [Fam2.1 aminoacylation ribozyme variant]	1.06	1.15	1.29	1.04	0.883	1.01
AUUUACCUAGGUCAUCGGGUA [Fam2.2 aminoacylation ribozyme variant]	14.1	12.3	39.9	22.2	29.5	218
CUCGUUCAAACAAUCGGUCUG [Fam1A.1 aminoacylation ribozyme variant]	1.09	1.07	1.31	6.95	0.961	10.2
AUUACCGUGGUCAUCGAGGGA [Fam2.1 aminoacylation ribozyme variant]	1.13	1.59	1.73	1.65	1.54	0.86
CUACUGCAAAUAAUCGGUCUG [Fam1A.1 aminoacylation ribozyme variant]	0.756	0.657	0.588	0.665	0.717	1.01
AUUACCCUAGUCAUCGACUGA [Fam2.1 aminoacylation ribozyme variant]	0.84	0.889	0.597	0.431	0.5	0.453
CCACACUUCAAACAAUCUGUC [Fam1B.1 aminoacylation ribozyme variant]	0.417	0.602	0.321	0.467	0.364	0.813
CCAGACUUCAAGCAAUCGGAC [Fam1B.1 aminoacylation ribozyme variant]	1.3	1.45	1.17	1.58	1.17	1.78
CCACACAUCAAGCAAUCGGUC [Fam1B.1 aminoacylation ribozyme variant]	0.82	0.933	0.669	0.764	0.673	1.22
CCACCCUUCAAGCGAUCGGUC [Fam1B.1 aminoacylation ribozyme variant]	1.21	1.65	1.58	1.64	1.3	1.06
CCACACUUCGUGCAAUCGGUC [Fam1B.1 aminoacylation ribozyme variant]	1	1.42	0.868	0.82	1.19	1.56
CUACUUCAAACACUCGGUCUA [Fam1A.1 aminoacylation ribozyme variant]	1.09	1.08	0.933	0.738	0.819	0.843
AUUACCCUGGUCCUCGAUUGA [Fam2.1 aminoacylation ribozyme variant]	0.762	1.05	0.909	0.403	0.64	0.457
CGACACUUCAAGCAAUAGGUC [Fam1B.1 aminoacylation ribozyme variant]	0.685	0.587	0.597	0.534	0.542	1.01
CUACUUCUAACAAUCGUUCUG [Fam1A.1 aminoacylation ribozyme variant]	0.514	0.561	0.491	0.411	0.52	0.684
CUACUUCAAACAGUCGGUGUG [Fam1A.1 aminoacylation ribozyme variant]	1.32	1.05	1.58	1.08	1.63	0.935
